Results on 9 molecules are retold here after article doi:10.1101/2022.12.21.521423 (bioRxiv, 2022).

Amino acid sequences for entries named in this document (tags omitted). A change or cut given only in a name is not applied to a line headed by its entry. Residues count along the entry.
UniProt Q07699, 19-218: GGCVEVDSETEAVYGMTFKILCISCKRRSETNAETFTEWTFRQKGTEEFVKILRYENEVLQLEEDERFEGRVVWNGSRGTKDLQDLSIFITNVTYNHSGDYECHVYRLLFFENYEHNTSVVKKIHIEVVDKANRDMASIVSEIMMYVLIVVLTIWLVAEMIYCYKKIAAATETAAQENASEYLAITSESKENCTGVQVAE
UniProt Q96QE4, 28-905: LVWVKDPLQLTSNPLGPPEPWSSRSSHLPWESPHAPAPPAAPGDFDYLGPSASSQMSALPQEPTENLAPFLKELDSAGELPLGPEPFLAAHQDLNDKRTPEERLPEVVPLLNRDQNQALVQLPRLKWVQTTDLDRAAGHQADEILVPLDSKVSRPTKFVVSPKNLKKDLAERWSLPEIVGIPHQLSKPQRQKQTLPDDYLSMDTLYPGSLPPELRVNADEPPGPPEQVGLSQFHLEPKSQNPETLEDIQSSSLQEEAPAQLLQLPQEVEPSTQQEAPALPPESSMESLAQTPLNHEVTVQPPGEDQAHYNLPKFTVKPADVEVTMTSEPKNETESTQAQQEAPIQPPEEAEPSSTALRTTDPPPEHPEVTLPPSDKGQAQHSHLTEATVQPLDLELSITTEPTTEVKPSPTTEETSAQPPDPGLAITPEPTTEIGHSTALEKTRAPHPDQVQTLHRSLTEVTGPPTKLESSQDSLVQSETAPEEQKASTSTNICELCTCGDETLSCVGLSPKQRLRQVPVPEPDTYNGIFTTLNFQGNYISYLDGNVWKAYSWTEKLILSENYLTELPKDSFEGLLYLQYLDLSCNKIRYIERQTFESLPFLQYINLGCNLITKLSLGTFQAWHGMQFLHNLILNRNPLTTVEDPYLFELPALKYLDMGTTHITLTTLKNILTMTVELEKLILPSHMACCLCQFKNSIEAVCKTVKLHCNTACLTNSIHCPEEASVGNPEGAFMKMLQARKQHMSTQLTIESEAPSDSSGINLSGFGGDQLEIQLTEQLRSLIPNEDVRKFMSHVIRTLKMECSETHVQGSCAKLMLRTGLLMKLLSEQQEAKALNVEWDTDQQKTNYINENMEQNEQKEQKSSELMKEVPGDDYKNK
UniProt Q96QE4, whole entry, looked up, stated change not applied: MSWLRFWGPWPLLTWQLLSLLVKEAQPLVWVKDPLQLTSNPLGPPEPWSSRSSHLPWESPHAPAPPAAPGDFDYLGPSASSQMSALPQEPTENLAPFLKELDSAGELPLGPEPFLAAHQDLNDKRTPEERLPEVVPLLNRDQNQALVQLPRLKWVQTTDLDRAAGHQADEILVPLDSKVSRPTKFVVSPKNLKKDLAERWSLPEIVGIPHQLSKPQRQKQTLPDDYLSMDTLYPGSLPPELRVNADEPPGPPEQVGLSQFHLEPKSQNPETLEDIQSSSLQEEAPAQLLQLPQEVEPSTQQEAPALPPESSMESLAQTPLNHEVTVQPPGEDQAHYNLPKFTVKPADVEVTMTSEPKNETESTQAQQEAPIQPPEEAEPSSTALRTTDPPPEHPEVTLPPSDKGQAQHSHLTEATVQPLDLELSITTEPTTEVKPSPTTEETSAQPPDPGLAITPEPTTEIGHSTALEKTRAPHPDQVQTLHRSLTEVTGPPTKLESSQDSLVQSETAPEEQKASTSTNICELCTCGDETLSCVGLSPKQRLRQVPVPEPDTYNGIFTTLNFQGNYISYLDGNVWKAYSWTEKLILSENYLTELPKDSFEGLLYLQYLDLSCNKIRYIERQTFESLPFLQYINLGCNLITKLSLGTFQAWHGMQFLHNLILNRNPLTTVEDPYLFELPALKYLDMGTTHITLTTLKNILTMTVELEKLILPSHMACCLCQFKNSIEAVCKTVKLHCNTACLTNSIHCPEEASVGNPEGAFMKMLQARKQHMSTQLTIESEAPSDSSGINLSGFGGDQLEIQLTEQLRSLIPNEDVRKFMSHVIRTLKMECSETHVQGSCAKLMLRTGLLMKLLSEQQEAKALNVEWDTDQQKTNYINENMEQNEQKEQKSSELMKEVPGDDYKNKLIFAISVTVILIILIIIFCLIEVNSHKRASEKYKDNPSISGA
UniProt A6NM11, 36-1700: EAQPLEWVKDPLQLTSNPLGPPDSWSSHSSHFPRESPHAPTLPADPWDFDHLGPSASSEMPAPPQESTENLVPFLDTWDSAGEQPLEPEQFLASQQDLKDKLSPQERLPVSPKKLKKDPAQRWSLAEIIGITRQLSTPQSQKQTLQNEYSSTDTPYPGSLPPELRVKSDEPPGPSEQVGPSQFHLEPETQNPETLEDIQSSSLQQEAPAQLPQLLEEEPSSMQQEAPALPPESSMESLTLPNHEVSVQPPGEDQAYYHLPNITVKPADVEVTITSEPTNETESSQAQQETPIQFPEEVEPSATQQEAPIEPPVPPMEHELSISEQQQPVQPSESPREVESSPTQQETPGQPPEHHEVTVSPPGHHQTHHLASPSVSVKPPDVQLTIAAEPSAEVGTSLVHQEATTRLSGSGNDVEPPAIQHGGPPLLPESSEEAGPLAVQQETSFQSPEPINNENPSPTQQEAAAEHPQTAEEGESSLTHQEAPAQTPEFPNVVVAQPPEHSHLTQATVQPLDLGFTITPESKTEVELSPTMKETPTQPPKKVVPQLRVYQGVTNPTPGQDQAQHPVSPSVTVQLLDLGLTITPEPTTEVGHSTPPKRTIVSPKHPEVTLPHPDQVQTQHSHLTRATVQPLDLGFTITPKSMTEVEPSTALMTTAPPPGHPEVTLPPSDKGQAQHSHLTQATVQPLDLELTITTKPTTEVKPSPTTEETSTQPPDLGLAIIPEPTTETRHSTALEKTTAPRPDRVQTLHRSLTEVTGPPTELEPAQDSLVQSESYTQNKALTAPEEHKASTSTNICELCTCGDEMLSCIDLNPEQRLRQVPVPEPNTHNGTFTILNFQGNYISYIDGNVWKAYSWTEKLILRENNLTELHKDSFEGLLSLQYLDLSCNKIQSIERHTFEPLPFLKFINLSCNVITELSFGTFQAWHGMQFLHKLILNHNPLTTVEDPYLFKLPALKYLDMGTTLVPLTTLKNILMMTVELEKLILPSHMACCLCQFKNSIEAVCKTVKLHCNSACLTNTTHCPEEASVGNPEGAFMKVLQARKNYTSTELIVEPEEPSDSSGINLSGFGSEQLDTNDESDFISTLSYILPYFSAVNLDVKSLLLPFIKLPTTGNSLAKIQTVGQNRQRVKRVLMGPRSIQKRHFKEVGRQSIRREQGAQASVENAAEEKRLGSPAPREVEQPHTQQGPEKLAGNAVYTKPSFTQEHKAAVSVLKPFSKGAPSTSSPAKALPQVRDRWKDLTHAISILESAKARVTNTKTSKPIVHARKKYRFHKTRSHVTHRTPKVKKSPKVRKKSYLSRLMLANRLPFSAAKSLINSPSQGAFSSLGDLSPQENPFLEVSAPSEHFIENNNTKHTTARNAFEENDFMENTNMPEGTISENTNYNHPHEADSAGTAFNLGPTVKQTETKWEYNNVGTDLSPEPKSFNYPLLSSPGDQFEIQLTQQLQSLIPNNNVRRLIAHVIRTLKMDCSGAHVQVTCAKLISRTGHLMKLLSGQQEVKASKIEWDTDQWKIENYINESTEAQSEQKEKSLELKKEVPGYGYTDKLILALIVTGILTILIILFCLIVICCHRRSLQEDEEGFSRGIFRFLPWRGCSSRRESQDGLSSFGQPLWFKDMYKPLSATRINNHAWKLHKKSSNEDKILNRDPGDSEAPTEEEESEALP
UniProt Q86UE6, 35-427: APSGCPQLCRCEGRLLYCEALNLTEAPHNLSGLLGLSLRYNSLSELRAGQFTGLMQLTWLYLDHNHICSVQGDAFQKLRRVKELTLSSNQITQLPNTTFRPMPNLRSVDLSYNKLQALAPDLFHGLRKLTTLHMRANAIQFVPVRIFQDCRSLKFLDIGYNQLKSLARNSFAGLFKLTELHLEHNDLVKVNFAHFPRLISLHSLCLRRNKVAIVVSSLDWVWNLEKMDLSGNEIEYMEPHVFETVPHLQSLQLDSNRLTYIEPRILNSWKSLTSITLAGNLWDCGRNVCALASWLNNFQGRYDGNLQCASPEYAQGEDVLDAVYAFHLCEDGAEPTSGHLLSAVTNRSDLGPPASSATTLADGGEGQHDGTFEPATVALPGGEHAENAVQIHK

Read-outs that look alike come from different tables or passages of the source. These are yes or no findings as the source states them, for the method shown. For part of these data: Binding seen in cells or lysates may run through a third protein. Some results given as binding are weak or reduced against the parent protein; the word gives no strength. For part of these data: Where a sequence is shown, tags or fusion partners need not be part of it.

One assay deals with SCN1B-FLAG (UniProt Q07699). Nature of the assay: co-IP.
Assay [1] concerns the target LRRC37B-HA expressed in mouse cortex (human) (UniProt Q96QE4). Nature of the assay: co-IP.
For assay [2], the target named is LRRC37B-HA (human) (UniProt Q96QE4). Nature of the assay: co-IP.
Assay [3] concerns the target HA-LRRC37B-LB-ECTO (human) (UniProt Q96QE4). Nature of the assay: co-IP.
Assay [4] deals with HA-LRRC37B-ECTO (human) (UniProt Q96QE4). Nature of the assay: co-IP.
The target in assay [5] is human LRRC37A2-HA (human) (UniProt A6NM11). Description: co-IP.
Assay [6] deals with LRRC37B_ECTO fused with alkaline phosphatase (human) (UniProt Q96QE4). Nature of the assay: ELISA.
For assay [7], the target named is LRRC37B-HA (human) (UniProt Q96QE4). Nature of the assay: co-IP. The source holds these as a separate data set.
The target in assay [8] is HA-LRRC37B-ECTO (human) (UniProt Q96QE4). Nature of the assay: co-IP. The source holds these as a separate data set.
Another assay addresses NAV1.6 (SCN8A) (UniProt Q9UQD0). Description: co-IP.
Assay [9] deals with HA-LRRC37B-ΔLRR-ECTO (human) (UniProt Q96QE4). Description: co-IP.
Assay [10] has as its target HA-LRRC37B-LRR-ECTO (human) (UniProt Q96QE4). Description: co-IP.
The target of the next assay is LRRTM1_ECTO (UniProt Q86UE6). Nature of the assay: co-IP.
Assay [11] concerns the target human LRRC37A2-HA (human) (UniProt A6NM11). Description: co-IP. The source holds these as a separate data set.
For another assay, the target named is T1, SLITRK2_ECTO (UniProt Q9H156).
T1 sequence: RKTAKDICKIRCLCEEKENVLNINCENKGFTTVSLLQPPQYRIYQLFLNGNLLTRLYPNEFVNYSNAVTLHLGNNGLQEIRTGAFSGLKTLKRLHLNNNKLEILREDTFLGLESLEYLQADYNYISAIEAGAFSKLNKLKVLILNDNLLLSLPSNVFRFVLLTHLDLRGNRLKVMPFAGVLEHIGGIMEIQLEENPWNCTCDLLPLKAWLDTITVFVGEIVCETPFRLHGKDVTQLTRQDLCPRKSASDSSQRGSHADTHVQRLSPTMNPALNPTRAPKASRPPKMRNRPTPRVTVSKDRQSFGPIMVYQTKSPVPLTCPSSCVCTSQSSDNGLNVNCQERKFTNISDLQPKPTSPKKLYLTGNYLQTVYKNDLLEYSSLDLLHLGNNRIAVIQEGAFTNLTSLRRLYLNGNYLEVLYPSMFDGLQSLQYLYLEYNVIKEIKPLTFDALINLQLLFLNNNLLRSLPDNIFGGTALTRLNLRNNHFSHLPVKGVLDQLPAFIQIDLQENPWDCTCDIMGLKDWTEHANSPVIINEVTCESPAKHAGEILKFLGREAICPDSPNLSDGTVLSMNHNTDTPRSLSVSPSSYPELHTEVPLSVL
Description: co-IP.

Assay [12] deals with HA-LRRC37B-ΔLRR-ECTO (human) (UniProt Q96QE4). Description: cell-surface binding assay.

As for “HA-LRRC37B-ECTO (from UniProt Q96QE4 28-905) (domain or fragment)”, the binding entry with SCN1B-FLAG is reported as “binds”.

As to “FGF13A of mouse cortex (from UniProt P70377-1 1-245) (ligand)”, the binding result in [1] was “binds”.

As for SCN1B-FLAG (from UniProt Q07699 19-218), the binding result with LRRC37B-HA (human) [2] is “binds”; in assay [3], “binds”; in the assay with HA-LRRC37B-ECTO (human) [4], “binds”; in assay [5], “no binding”.

B1: SLITRK5 ectodomain fused to an Fc domain (Fc fusion, UniProt O94991 41-664)
chain: IDYYGEICDNACPCEEKDGILTVSCENRGIISLSEISPPRFPIYHLLLSGNLLNRLYPNEFVNYTGASILHLGSNVIQDIETGAFHGLRGLRRLHLNNNKLELLRDDTFLGLENLEYLQVDYNYISVIEPNAFGKLHLLQVLILNDNLLSSLPNNLFRFVPLTHLDLRGNRLKLLPYVGLLQHMDKVVELQLEENPWNCSCELISLKDWLDSISYSALVGDVVCETPFRLHGRDLDEVSKQELCPRRLISDYEMRPQTPLSTTGYLHTTPASVNSVATSSSAVYKPPLKPPKGTRQPNKPRVRPTSRQPSKDLGYSNYGPSIAYQTKSPVPLECPTACSCNLQISDLGLNVNCQERKIESIAELQPKPYNPKKMYLTENYIAVVRRTDFLEATGLDLLHLGNNRISMIQDRAFGDLTNLRRLYLNGNRIERLSPELFYGLQSLQYLFLQYNLIREIQSGTFDPVPNLQLLFLNNNLLQAMPSGVFSGLTLLRLNLRSNHFTSLPVSGVLDQLKSLIQIDLHDNPWDCTCDIVGMKLWVEQLKVGVLVDEVICKAPKKFAETDMRSIKSELLCPDYSDVVVSTPTPSSIQVPARTSAVTPAVRLNSTGAPASLGAGGGASSVPLS
As to B1, the binding entry in assay [6] is “no binding”.

B2: FGF13A E. coli recombinant protein (ligand, UniProt Q92913-1 1-245)
chain: MAAAIASSLIRQKRQAREREKSNACKCVSSPSKGKTSCDKNKLNVFSRVKLFGSKKRRRRRPEPQLKGIVTKLYSRQGYHLQLQADGTIDGTKDEDSTYTLFNLIPVGLRVVAIQGVQTKLYLAMNSEGYLYTSELFTPECKFKESVFENYYVTYSSMIYRQQQSGRGWYLGLNKEGEIMKGNHVKKNKPAAHFLPKPLKVAMYKEPSLHDLTEFSRSGSGTPTKSRSVSGVLNGGKSMSHNEST
In the case of B2, the binding result in the assay with LRRC37B-HA (human) [7] is “binds”; in the assay with HA-LRRC37B-ECTO (human) [8], “binds”; in the assay with NAV1.6 (SCN8A), “binds”; in [9] it was “no binding”; in assay [10], “binds”.

B3: FGF13A (ligand, UniProt Q92913-1 1-245)
chain: MAAAIASSLIRQKRQAREREKSNACKCVSSPSKGKTSCDKNKLNVFSRVKLFGSKKRRRRRPEPQLKGIVTKLYSRQGYHLQLQADGTIDGTKDEDSTYTLFNLIPVGLRVVAIQGVQTKLYLAMNSEGYLYTSELFTPECKFKESVFENYYVTYSSMIYRQQQSGRGWYLGLNKEGEIMKGNHVKKNKPAAHFLPKPLKVAMYKEPSLHDLTEFSRSGSGTPTKSRSVSGVLNGGKSMSHNEST
Turning to B3, the binding entry is recorded as “binds” with LRRC37B-HA (human) [7]; “binds” in the assay with HA-LRRC37B-ECTO (human) [8]; “binds” with NAV1.6 (SCN8A); “no binding” in the assay with LRRTM1_ECTO; “binds” in assay [11]; “no binding” in assay [9]. The binding entry is listed as “no binding” with SLITRK2_ECTO and “binds” in assay [10].

B4: FGF13A ExonS synthetic peptide (peptide, UniProt Q92913-1 1-63)
peptide: MAAAIASSLIRQKRQAREREKSNACKCVSSPSKGKTSCDKNKLNVFSRVKLFGSKKRRRRRPE
As to B4, the binding entry in the assay with LRRC37B-HA (human) [7] and with NAV1.6 (SCN8A) was “binds” each time.

B5: FGF13A ExonS-biotin (peptide, UniProt Q92913-1 1-63)
peptide: MAAAIASSLIRQKRQAREREKSNACKCVSSPSKGKTSCDKNKLNVFSRVKLFGSKKRRRRRPE
modifications: biotin
Take B5: in [12], the binding entry is “no binding (tested: 100 nM)”.

B6: FGF13B (protein, UniProt Q92913-2 1-192)
chain: MALLRKSYSEPQLKGIVTKLYSRQGYHLQLQADGTIDGTKDEDSTYTLFNLIPVGLRVVAIQGVQTKLYLAMNSEGYLYTSELFTPECKFKESVFENYYVTYSSMIYRQQQSGRGWYLGLNKEGEIMKGNHVKKNKPAAHFLPKPLKVAMYKEPSLHDLTEFSRSGSGTPTKSRSVSGVLNGGKSMSHNEST
As to B6, in the assay with LRRC37B-HA (human) [7], the binding result is given as “no binding”.
